Experimental data taken from article PMC6566870.
Results are given in words; binding and its absence hold for the method and conditions named. For some assays here: Binding seen in cells or lysates may run through a third protein. Some entries that bind do so weakly or less than the wild type. For some assays here: Tags and fused reporters may be left off the sequences shown.

Chains of the proteins cited; added tags and fusions are not shown. Residues count along the entry.
UniProt P32121: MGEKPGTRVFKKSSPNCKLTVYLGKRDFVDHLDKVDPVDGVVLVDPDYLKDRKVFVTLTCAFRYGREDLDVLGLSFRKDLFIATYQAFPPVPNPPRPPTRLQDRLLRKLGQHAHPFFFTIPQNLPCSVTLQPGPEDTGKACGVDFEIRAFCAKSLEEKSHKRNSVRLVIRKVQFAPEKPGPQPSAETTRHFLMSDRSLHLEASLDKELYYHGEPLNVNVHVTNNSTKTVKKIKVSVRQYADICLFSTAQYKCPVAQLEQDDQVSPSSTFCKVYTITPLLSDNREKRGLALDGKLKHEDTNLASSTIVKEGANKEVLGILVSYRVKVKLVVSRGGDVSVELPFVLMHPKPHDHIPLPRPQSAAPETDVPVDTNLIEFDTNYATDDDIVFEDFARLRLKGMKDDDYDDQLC
UniProt P10147, residues 24-92: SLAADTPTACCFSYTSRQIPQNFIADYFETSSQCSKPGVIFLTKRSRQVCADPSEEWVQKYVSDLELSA

How the values were obtained:
[1] = molecular target: T1, CCR1 fused to RLuc8 (human) (UniProt P32246); assay: FRET or BRET; BRET between CCR1-RLuc8 and βArr2-YFP in transiently transfected Flp-In T-REx 293 cells; chemokine added 5 min after coelenterazine h, 10 min at 37 °C
T1 sequence: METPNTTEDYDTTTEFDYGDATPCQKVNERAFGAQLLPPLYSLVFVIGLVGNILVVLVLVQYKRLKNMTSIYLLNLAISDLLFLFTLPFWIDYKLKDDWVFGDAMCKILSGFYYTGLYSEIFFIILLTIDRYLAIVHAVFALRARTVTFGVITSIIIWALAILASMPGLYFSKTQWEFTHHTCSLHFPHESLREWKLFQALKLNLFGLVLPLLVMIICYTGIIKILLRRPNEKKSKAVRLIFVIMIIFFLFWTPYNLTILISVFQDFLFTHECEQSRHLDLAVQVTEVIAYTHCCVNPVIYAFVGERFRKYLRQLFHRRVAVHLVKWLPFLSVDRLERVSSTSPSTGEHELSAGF

[2] = molecular target: N-terminally His6-tagged cMyc-tagged human CCR1 (human) (UniProt P32246); assay: radioligand binding; competitive displacement of 50 pM 125I-CCL3 from membranes of Flp-In T-REx 293 cells expressing CCR1; 2 h at 37 °C; two sets of experiments (Table 1, Table 3); only the binder purified

| Substance | binding [1] | binding [2] |
| --- | --- | --- |
| βArr2 fused to YFP (from UniProt P32121 1-409) | binds |  |
| 125I-labeled CCL3 (from UniProt P10147 24-92) (ligand) |  | binds |
